# Not every detail of the peptide structures is certain; ends, links or a residue may be inferred. No end group written: not given here.
# Assay: HK-Q11 self-assembly (TEM, thioflavin T fluorescence)
# Assay type: physicochemical
# Conditions: 1 mM in 1×PBS
substance,measurement,value
QQKFQFQFHQQ-NH2 [HK-Q11],self-assembly into nanofibers,self-assembled into β-sheet nanofibers
